These results are taken from US20250257146A1 (DAIICHI SANKYO COMPANY, LIMITED, priority 2013, published 2025).

A short description of the data set: general procedure: solution-phase peptide synthesis; N-hydroxysuccinimide with EDC hydrochloride; N-hydroxysuccinimide with DCC. Conditions: trifluoroacetate (deprotected intermediates).

The substance “Glycylglycyl-L-phenylalanyl-N-(4-{[(1S,9S)-9-ethyl-5-fluoro-9-hydroxy-4-methyl-10,13-dioxo-2,3,9,10,13,15-hexahydro-1H,12H-benzo[de]pyrano[3′,4′:6,7]indolizino[1,2-b]quinolin-1-yl]amino}-4-oxobutyl)glycinamide trifluoroacetate” showed a step yield (late stage modification step) of 99%.

The substance “N-(tert-Butoxycarbonyl)glycylglycyl-L-phenylalanyl-N-(4-{[(1S,9S)-9-ethyl-5-fluoro-9-hydroxy-4-methyl-10,13-dioxo-2,3,9,10,13,15-hexahydro-1H,12H-benzo[de]pyrano[3′,4′:6,7]indolizino[1,2-b]quinolin-1-yl]amino}-4-oxobutyl)glycinamide” gave a conjugation yield (conjugation step) of 73%.
